Source: article PMC7957188, “An antitumor peptide RS17‐targeted CD47, design, synthesis, and antitumor activity” (Cancer Medicine, 2021)
These are yes or no findings as the source states them, for the method shown. Some entries that bind do so weakly or less than the wild type.

Sequences of proteins named here, by UniProt entry; tags and fusion partners are left off. Residues count along the entry.
UniProt Q08722, residues 19-323: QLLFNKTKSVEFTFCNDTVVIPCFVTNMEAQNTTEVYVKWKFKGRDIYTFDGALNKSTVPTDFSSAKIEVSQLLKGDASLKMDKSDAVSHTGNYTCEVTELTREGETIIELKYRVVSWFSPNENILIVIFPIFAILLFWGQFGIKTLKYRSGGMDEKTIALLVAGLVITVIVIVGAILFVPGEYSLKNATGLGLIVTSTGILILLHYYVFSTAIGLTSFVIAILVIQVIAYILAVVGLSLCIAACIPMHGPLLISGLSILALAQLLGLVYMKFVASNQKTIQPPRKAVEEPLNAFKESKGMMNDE

Molecular target: CD47 on SCC-13 and HepG2 tumor cells (human (endogenous in SCC-13 and HepG2)) (UniProt Q08722)
Experiment: flow cytometry on cells; SCC-13 and HepG2 cells (3 x 10^6 cells/ml, 100 μl) incubated with 1 μM FITC-RS17 for 1 h at 37℃, 5% CO2, in dark; washed with PBS; only the binder purified

binding: binds
Binder: RRYKQDGGWSHWSPWSS (FITC coupled through the Acp active group to RS17) [FITC-RS17 peptide]
